The values below come from publication PMC4583993.

Sequences of proteins named here, by UniProt entry; tags and fusion partners are left off. Residues count along the entry.
UniProt Q9NPH3, residues 21-570: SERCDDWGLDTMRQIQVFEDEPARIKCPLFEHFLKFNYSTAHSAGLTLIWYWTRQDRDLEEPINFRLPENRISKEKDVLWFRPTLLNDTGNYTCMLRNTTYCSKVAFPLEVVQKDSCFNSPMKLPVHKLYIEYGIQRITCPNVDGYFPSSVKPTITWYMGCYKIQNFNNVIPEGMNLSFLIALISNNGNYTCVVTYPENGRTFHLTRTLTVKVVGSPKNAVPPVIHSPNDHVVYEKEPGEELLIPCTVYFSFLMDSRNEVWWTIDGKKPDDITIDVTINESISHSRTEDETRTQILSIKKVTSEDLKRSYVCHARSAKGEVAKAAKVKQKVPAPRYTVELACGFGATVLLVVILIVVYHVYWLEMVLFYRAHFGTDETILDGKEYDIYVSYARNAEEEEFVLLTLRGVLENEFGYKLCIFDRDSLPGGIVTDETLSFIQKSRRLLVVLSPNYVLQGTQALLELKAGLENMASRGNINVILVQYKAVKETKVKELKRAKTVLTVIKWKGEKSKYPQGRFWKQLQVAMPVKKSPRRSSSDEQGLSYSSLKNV

This assay has as its target IL-1 receptor accessory protein (IL-1IRAcP) (human (endogenous in KMH2)) (UniProt Q9NPH3). Kind of assay: co-IP; KMH2 lysate (20mM Tris pH 7.4, 1mM EGTA, 1mM EDTA, 2mM DTT, 0.5% TritonX-100) incubated with anti-IL-1IRAcP and Sepharose-G beads over night; blot developed with anti-IL-1IRAcP, stripped and developed with anti-IL-1R2.

No constants are given. Whether binding was seen depends on the method and setting. Binding seen in cells or lysates may run through a third protein. Some results given as binding are weak or reduced against the parent protein; the word gives no strength.

B1: IL-1 receptor type 2 (IL-1R2) (receptor, UniProt P27930 14-398)
chain: FTLQPAAHTGAARSCRFRGRHYKREFRLEGEPVALRCPQVPYWLWASVSPRINLTWHKNDSARTVPGEEETRMWAQDGALWLLPALQEDSGTYVCTTRNASYCDKMSIELRVFENTDAFLPFISYPQILTLSTSGVLVCPDLSEFTRDKTDVKIQWYKDSLLLDKDNEKFLSVRGTTHLLVHDVALEDAGYYRCVLTFAHEGQQYNITRSIELRIKKKKEETIPVIISPLKTISASLGSRLTIPCKVFLGTGTPLTTMLWWTANDTHIESAYPGGRVTEGPRQEYSENNENYIEVPLIFDPVTREDLHMDFKCVVHNTLSFQTLRTTVKEASSTFSWGIVLAPLSLAFLVLGGIWMHRRCKHRTGKADGLTVLWPHHQDFQSYPK
Consider B1, for which the binding result was “binds”.
